Source: PubChem BioAssay AID1487 (National Center for Advancing Translational Sciences (NCATS), 2009)
Some of the results follow. Shown are side measurements of this screen, not its main read-out; they come without a call. The list favours compounds with an active or inconclusive main result. Words in brackets tell the shape of the fitted curve; partial curves, single points and poor fits give uncertain potencies.

Experiment: qHTS Assay for Modulators of Lamin A Splicing
Conditions: HeLa LMNA splicing GFP/RFP minigene ratio, 48 h
From the text: NCGC Assay Overview: Hutchinson-Gilford Progeria Syndrome (HGPS) is a pediatric premature aging disease caused by a spontaneous mutation in the lamin A/C (LMNA) gene. The mutation activates a cryptic splice site in the LMNA pre-mRNA which results in production of a pre-lamin A protein that cannot be processed properly. The mutant protein accumulates in the nucleus and negatively affects numerous cellular functions. Correction of the splicing defect in HGPS patient cells using a targeted oligonucleotide (exo11) leads to reversal of the cellular disease phenotypes. To identify small molecule modulators of aberrant LMNA splicing, a homogenous assay was constructed in HeLa cells that used a GFP containing minigene to report on correction of aberrant splicing in lamin A and a RFP (DsRed2) to report on cell viability, uniformity and nonspecific effects on the assay signal. This assay was adapted to laser-scanning microplate cytometry (Acumen, TTP Labtech) where miniaturization of the assay to a 1,536-well plate format was possible. References: Bowen, W. P.; Wylie, P. G. Application of Laser-Scanning Fluorescence Microplate Cytometry in High Content Screening. Assay Drug Dev Technol 2006;4:209-221. Scaffidi P, Misteli T. Reversal of the cellular phenotype in the premature aging disease Hutchinson-Gilford progeria syndrome. Nat.
NCGC Assay Protocol Summary: Reagents/Controls: Stable clones expressing DsRed2 and lamin A-EGFP were generated by Cell and Molecular Technologies in S3 HeLa cells. HeLa cells were prepared for the assay when they were 70-90% confluent. The cells were counted and resuspended in Opti-MEM I (no phenol red; Gibco), 2% FBS, 1% penicillin/ streptomycin (Gibco) at concentration of 120 cells/uL concentration. The suspension was passed through a Falcon basket filter with pore size 40um (Beckton Dickson). Control titrations: column […] 1536-well plate contained a sixteen point titration (1:2 dilutions) in duplicate of ancitabine (Sigma: A8598) beginning at 40 uM final concentration. Column 2 contained a sixteen point titration (1:2 dilutions) of cycloheximide beginning at 1.4 mM final concentration. Column 3 contained ancitabine at 40 uM and column 4 contained was the vehicle control (0.5% DMSO final concentration). Assay Steps: 5 uL of HeLa cells were plated in Aurora LoBase black clear bottom (cyclic-olefin polymer) 1536-well plates at a final density of 600 cells/well. Controls and library compounds were added with a 1536-well pin array using the Kalypsys pin-tool. The plates were then incubated for 48 hrs in a cell-culture incubator (37 °C; 5% CO2, 98% humidity). Following incubation the plates were read on the Acumen Explorer using the 488 nm laser. Data was collected on objects between 10 and 100 um in size. Cell objects were defined by a 15 um width x 10 um depth filter. The ratio of the total object intensity in PMT1 (500-530 nm emission; GFP) over PMT3 (575-640 nm emission; RFP) was calculated for analysis. Keywords: NIH Roadmap, MLSCN, MLI, MLSMR, qHTS, NCGC, lamin A, Progeria, RNA splicing.

[1] = measured here: GFP splicing reporter channel
[2] = measured here: RFP viability control channel

Compound | AC50 [1] | AC50 [2]
COc1ccc(-c2cc(C(=O)N3CCN(c4ccccc4OC)CC3)no2)cc1OC | 0.1 µM [falling, partial curve] | 12.6 µM [falling, partial curve, poor fit]
CCN(CC)Cc1c(O)ccc2c([N+](=O)[O-])c(C)n(-c3ccc(OC)cc3)c12 | – | 20 µM [rising, partial curve, poor fit]
COc1ccc(C2(C(=O)Nc3ccc(OC)cc3OC)CCCC2)cc1 | 2.24 µM [falling, partial curve] | –
Cc1ccccc1OCC(=O)Nc1ccc(N2CCN(C(=O)C(C)C)CC2)c(Cl)c1 | – | 35.5 µM [falling, single point]
CCSC1(SCC)N=C(N)C2(C#N)C(c3ccc(OC)c(OC)c3OC)C12C#N (stereo not drawn) | – | 20 µM [rising, single point]
COCc1cc(N2CCN(c3ccccc3F)CC2)nc(-c2ccccc2)n1 | – | 35.5 µM [rising, single point]
S=C(NCc1ccc(Cl)cc1)NC1CCCCC1 | – | 15.8 µM [rising, single point]
COc1ccc(Oc2ncc3nc(CCc4ccccc4)c(=O)n(C[C@H]4CCCO4)c3n2)cc1 | 11.2 µM [falling, partial curve] | –
CN(C)C=Nc1ncc2c3ccccc3n(Cc3ccccc3)c2c1C#N | 1 µM [falling, single point] | 1.12 µM [falling, single point]
Cc1cc(C(=O)N/N=C/c2cc(Br)ccc2OC(=O)c2ccccc2Cl)n[nH]1 | 15.8 µM [falling, partial curve, poor fit] | 5.01 µM [falling, partial curve]
O=[N+]([O-])c1ccc(Cl)c(S(=O)(=O)/N=C(/c2ccccc2)N2CCOCC2)c1 | 8.91 µM [falling, partial curve] | 6.31 µM [falling, partial curve]
CCCCn1cc(S(=O)(=O)c2cccc(C)c2)c(=O)c2cc(F)c(N3CCOCC3)cc21 | – | 35.5 µM [rising, single point]
COc1ccc(Cc2nnc(Nc3ccc4c(c3)OCCO4)[nH]c2=O)cc1 | 0.794 µM [rising, full curve, poor fit] | –
CCOC(=O)N/N=C/c1cc(OC)c(O)c(OC)c1 | 0.141 µM [rising, full curve, poor fit] | 0.126 µM [rising, full curve]
CCc1ccc(Nc2cnn(-c3nc4ccccc4s3)c(=O)c2Cl)cc1 | – | 25.1 µM [rising, single point]
Cc1ccc(NC(=O)CCn2nnc3ccccc32)cc1 | – | 25.1 µM [falling, partial curve, poor fit]
c1ccc(CNc2nc(-c3cccnc3)nc3ccccc23)cc1 | 12.6 µM [falling, partial curve, poor fit] | 17.8 µM [falling, partial curve]
COc1cccc2c1CCC(NC(C)=O)C2=O (stereo not drawn) | – | 11.2 µM [rising, partial curve, poor fit]

Given with tabs: 2 of the compounds above
Compound	AC50 [1]	AC50 [2]
S=C(NCc1ccc(Cl)cc1)NC1CCCCC1	–	15.8 µM [rising, single point]
COc1ccc(Oc2ncc3nc(CCc4ccccc4)c(=O)n(C[C@H]4CCCO4)c3n2)cc1	11.2 µM [falling, partial curve]	–

Later entries.

Compound | AC50 [1] | AC50 [2]
CCC(C)(C)n1nnnc1C(c1cccc(C#N)c1)N1CCN(c2cccc(C)c2C)CC1 (stereo not drawn) | 12.6 µM [rising, single point] | –
CC1CCCCC1NC(=O)CN1C(=O)CSc2cc(S(=O)(=O)N3CCCCCC3)ccc21 (stereo not drawn) | 5.62 µM [rising, partial curve] | 7.94 µM [rising, partial curve]
CCOc1ccccc1CNC(=O)c1cc2c(=O)n(Cc3ccco3)ccc2nc1C | 0.00316 µM [rising, full curve] | 8.91 µM [rising, partial curve, poor fit]
Nc1ccc(-c2nc3c(Cl)cc(N)cc3[nH]2)cc1 | – | 35.5 µM [rising, single point]
Cc1cc(N=Cc2c(O)n(-c3ccc(C)c(C)c3)c(=O)c3ccccc23)no1 | – | 3.16 µM [rising, full curve]
COc1ccccc1NS(=O)(=O)c1cc(NC(=O)Cn2cnc3c2c(=O)n(C)c(=O)n3C)ccc1C | 2 µM [rising, partial curve, poor fit] | 12.6 µM [rising, partial curve, poor fit]
Cc1cc(C)c(C(=O)/C=C/c2cccc3ccccc23)c(=O)[nH]1 | 2.82 µM [falling, partial curve] | 3.16 µM [falling, single point]
CC(C)(C)c1cc(C(=O)N2CCN(c3ncccn3)CC2)ccn1 | 12.6 µM [rising, single point] | 31.6 µM [rising, single point]
Cc1ccc(OCC(=O)Nc2nnc(SCc3cc(=O)n4cccc(C)c4n3)s2)cc1 | 0.501 µM [rising, single point] | 0.631 µM [rising, single point]
COc1cccc(N2CCN(Cc3nnnn3C3CCCCC3)CC2)c1 | 0.0224 µM [falling, full curve, poor fit] | –
Cc1cc(C(=O)CSc2nnc(-c3cccs3)o2)c(C)n1-c1ccccc1 | – | 11.2 µM [rising, partial curve, poor fit]
COc1ccc(NC(=O)Cn2nnc(-c3ccc(CN4CCOCC4)cc3)n2)c(OC)c1 | 11.2 µM [rising, partial curve] | –
O=C(O)c1cc(S(=O)(=O)Nc2ccc(N3CCCCC3)cc2)ccc1Cl | 0.355 µM [rising, full curve, poor fit] | 0.447 µM [rising, partial curve, poor fit]
O=c1c(Cc2ccc(F)cc2)c(O)ccn1Cc1ccc(Cl)cc1Cl | 22.4 µM [rising, single point] | –
Cc1[nH]c2ccccc2c1CCN(Cc1cccnc1)C(=S)Nc1cccc(F)c1 | 0.0282 µM [falling, single point] | –
C=CCNC(=S)N/N=C/c1cccc([N+](=O)[O-])c1 | – | 3.16 µM [falling, partial curve]
C=Cc1c(C)/c2[n-]/c1=C\c1[n-]c(c(CC)c1C)/C=c1\[n-]c3c(c1C)C(=O)C(C(=O)[O-])C=3c1[n-]c(c(C)c1CCC(=O)[O-])\C=2.[Cu].[Na+].[Na+] (stereo not drawn) | – | 0.794 µM [rising, single point]

Complete entries from above.
`Cc1[nH]c2ccccc2c1CCN(Cc1cccnc1)C(=S)Nc1cccc(F)c1` as listed: AC50 [1]: 0.0282 µM [falling, single point]
`O=C(O)c1cc(S(=O)(=O)Nc2ccc(N3CCCCC3)cc2)ccc1Cl` as listed: AC50 [1]: 0.355 µM [rising, full curve, poor fit]; AC50 [2]: 0.447 µM [rising, partial curve, poor fit]
